Some results were stated once for a whole list of compounds, not compound by compound. At least one compound was matched to its structure with a doubt left.
Columns and labels:
Type in all cases: in vivo
[1] = test system: Plutella xylostella (Diamond Back Moth); experiment: Plutella xylostella larval test on artificial diet; settings: 200 ppm (concentration in well 18 ppm), L2 larvae, larval mortality and growth regulation after 6 days
From the text: (§1) This Example illustrates the insecticidal and acaricidal properties of compounds of formula (I).

[2] = test system: Heliothis virescens (Tobacco Budworm); experiment: Heliothis virescens egg test on artificial diet; settings: 200 ppm (concentration in well 18 ppm), eggs 0-24 h old on artificial diet; egg mortality, larval mortality, growth regulation after 4 days
From the text: as §1

[3] = test system: Diabrotica balteata (Corn Root Worm); experiment: Diabrotica balteata larval test on artificial diet; settings: 200 ppm (concentration in well 18 ppm), L2 larvae, larval mortality and growth regulation after 5 days
From the text: as §1

[4] = test system: Spodoptera littoralis (Egyptian Cotton Leafworm); experiment: Spodoptera littoralis leaf disc spray test; settings: 200 ppm spray on cotton leaf discs; mortality, feeding behavior, growth regulation 3 days after treatment
Procedure: This Example illustrates the insecticidal and acaricidal properties of compounds of formula (I). Tests were performed as follows:

[5] = test system: Tetranychus urticae (Two-Spotted Spider Mite); experiment: Tetranychus urticae leaf disc spray test; settings: 200 ppm spray on bean leaf discs, mixed ages; egg, larval and adult mortality 8 days later
From the text: as §1

[6] = test system: Thrips tabaci (Onion Thrips); experiment: Thrips tabaci leaf disc spray test; settings: 200 ppm spray on sunflower leaf discs, mixed ages; mortality after 7 days
From the text: as §1

Cc1cc(C2=NOC(c3cc(C(F)(F)F)cc(C(F)(F)F)c3)(C(F)(F)F)C2)ccc1C(=O)NC1(C)CSC1 (stereo not drawn) [Compound A001]
at least 80%: control of Plutella xylostella [1] | control of Heliothis virescens [2] | control of Diabrotica balteata [3] | control of Spodoptera littoralis [4] | control of Tetranychus urticae [5] | control of Thrips tabaci [6]

Cc1cc(C2=NOC(c3cc(Cl)cc(C(F)(F)F)c3)(C(F)(F)F)C2)ccc1C(=O)NC1CS(=O)(=O)C1 (stereo not drawn) [Compound A062]
at least 80%: control of Plutella xylostella [1] | control of Heliothis virescens [2] | control of Diabrotica balteata [3] | control of Spodoptera littoralis [4] | control of Tetranychus urticae [5] | control of Thrips tabaci [6]

Cc1cc(C2=NOC(c3cc(Cl)cc(C(F)(F)F)c3)(C(F)(F)F)C2)ccc1C(=O)NC1(C)CSC1 (stereo not drawn) [Compound A063]
at least 80%: control of Plutella xylostella [1] | control of Heliothis virescens [2] | control of Diabrotica balteata [3] | control of Spodoptera littoralis [4] | control of Tetranychus urticae [5] | control of Thrips tabaci [6]

Cc1cc(C2=NOC(c3cc(Cl)cc(C(F)(F)F)c3)(C(F)(F)F)C2)ccc1C(=O)NC1CSC1 (stereo not drawn) [Compound A065]
at least 80%: control of Plutella xylostella [1] | control of Heliothis virescens [2] | control of Diabrotica balteata [3] | control of Spodoptera littoralis [4] | control of Tetranychus urticae [5] | control of Thrips tabaci [6]

Cc1cc(C2=NOC(c3cc(Cl)cc(C#N)c3)(C(F)(F)F)C2)ccc1C(=O)NC1CS(=O)(=O)C1 (stereo not drawn) [Compound A082]
at least 80%: control of Plutella xylostella [1] | control of Heliothis virescens [2] | control of Diabrotica balteata [3] | control of Spodoptera littoralis [4] | control of Tetranychus urticae [5] | control of Thrips tabaci [6]

Cc1cc(C2=NOC(c3cc(Cl)cc(C#N)c3)(C(F)(F)F)C2)ccc1C(=O)NC1CSC1 (stereo not drawn) [Compound A084]
at least 80%: control of Plutella xylostella [1] | control of Heliothis virescens [2] | control of Diabrotica balteata [3] | control of Spodoptera littoralis [4] | control of Tetranychus urticae [5] | control of Thrips tabaci [6]

Cc1cc(C2=NOC(c3cc(Cl)cc(C#N)c3)(C(F)(F)F)C2)ccc1C(=O)NC1C[S+]([O-])C1 (stereo not drawn) [Compound A085]
at least 80%: control of Plutella xylostella [1] | control of Heliothis virescens [2] | control of Diabrotica balteata [3] | control of Spodoptera littoralis [4] | control of Tetranychus urticae [5] | control of Thrips tabaci [6]

Cc1cc(Cl)cc(C2(C(F)(F)F)CC(c3ccc(C(=O)NC4CS(=O)(=O)C4)c(C)c3)=NO2)c1 (stereo not drawn) [Compound A092]
at least 80%: control of Plutella xylostella [1] | control of Heliothis virescens [2] | control of Diabrotica balteata [3] | control of Spodoptera littoralis [4] | control of Tetranychus urticae [5] | control of Thrips tabaci [6]

Cc1cc(Cl)cc(C2(C(F)(F)F)CC(c3ccc(C(=O)NC4(C)CSC4)c(C)c3)=NO2)c1 (stereo not drawn) [Compound A093]
at least 80%: control of Plutella xylostella [1] | control of Heliothis virescens [2] | control of Diabrotica balteata [3] | control of Spodoptera littoralis [4] | control of Tetranychus urticae [5] | control of Thrips tabaci [6]

Cc1cc(Cl)cc(C2(C(F)(F)F)CC(c3ccc(C(=O)NC4C[S+]([O-])C4)c(C)c3)=NO2)c1 (stereo not drawn) [Compound A094]
at least 80%: control of Plutella xylostella [1] | control of Heliothis virescens [2] | control of Diabrotica balteata [3] | control of Spodoptera littoralis [4] | control of Tetranychus urticae [5] | control of Thrips tabaci [6]

Cc1cc(Cl)cc(C2(C(F)(F)F)CC(c3ccc(C(=O)NC4CSC4)c(C)c3)=NO2)c1 (stereo not drawn) [Compound A095]
at least 80%: control of Plutella xylostella [1] | control of Heliothis virescens [2] | control of Diabrotica balteata [3] | control of Spodoptera littoralis [4] | control of Tetranychus urticae [5] | control of Thrips tabaci [6]

Cc1cc(C2=NOC(c3cc(Cl)cc(Cl)c3)(C(F)(F)F)C2)ccc1C(=O)NCC1CCS1 (stereo not drawn) [Compound A096]
at least 80%: control of Plutella xylostella [1] | control of Heliothis virescens [2] | control of Diabrotica balteata [3] | control of Spodoptera littoralis [4] | control of Tetranychus urticae [5] | control of Thrips tabaci [6]

Cc1cc(C2=NOC(c3cc(Cl)cc(Cl)c3)(C(F)(F)F)C2)ccc1C(=O)NCC1CC[S+]1[O-] (stereo not drawn) [Compound A097]
at least 80%: control of Plutella xylostella [1] | control of Heliothis virescens [2] | control of Diabrotica balteata [3] | control of Spodoptera littoralis [4] | control of Tetranychus urticae [5] | control of Thrips tabaci [6]

Cc1cc(C2=NOC(c3cc(Cl)cc(Cl)c3)(C(F)(F)F)C2)ccc1C(=O)NCC1CCS1(=O)=O (stereo not drawn) [Compound A098]
at least 80%: control of Plutella xylostella [1] | control of Heliothis virescens [2] | control of Diabrotica balteata [3] | control of Spodoptera littoralis [4] | control of Tetranychus urticae [5] | control of Thrips tabaci [6]

C=Cc1cc(Cl)cc(C2(C(F)(F)F)CC(c3ccc(C(=O)NC4C[S+]([O-])C4)c(C)c3)=NO2)c1 (stereo not drawn) [Compound A104]
at least 80%: control of Plutella xylostella [1] | control of Heliothis virescens [2] | control of Diabrotica balteata [3] | control of Spodoptera littoralis [4] | control of Tetranychus urticae [5] | control of Thrips tabaci [6]

Cc1cc(C2=NOC(c3cc(Cl)cc(CC(C)C)c3)(C(F)(F)F)C2)ccc1C(=O)NC1C[S+]([O-])C1 (stereo not drawn) [Compound A111]
at least 80%: control of Plutella xylostella [1] | control of Heliothis virescens [2] | control of Diabrotica balteata [3] | control of Spodoptera littoralis [4] | control of Tetranychus urticae [5] | control of Thrips tabaci [6]

Cc1cc(C2=NOC(c3cc(Cl)c(Cl)c(Cl)c3)(C(F)(F)F)C2)ccc1C(=O)NC1(C)CSC1 (stereo not drawn) [Compound A123]
at least 80%: control of Plutella xylostella [1] | control of Heliothis virescens [2] | control of Diabrotica balteata [3] | control of Spodoptera littoralis [4] | control of Tetranychus urticae [5] | control of Thrips tabaci [6]

Cc1cc(C2=NOC(c3cc(Cl)c(C#N)c(Cl)c3)(C(F)(F)F)C2)ccc1C(=O)NC1CS(=O)(=O)C1 (stereo not drawn) [Compound A126]
at least 80%: control of Plutella xylostella [1] | control of Heliothis virescens [2] | control of Diabrotica balteata [3] | control of Spodoptera littoralis [4] | control of Tetranychus urticae [5] | control of Thrips tabaci [6]

Cc1cc(C2=NOC(c3cc(Cl)c(C#N)c(Cl)c3)(C(F)(F)F)C2)ccc1C(=O)NC1CSC1 (stereo not drawn) [Compound A128]
at least 80%: control of Plutella xylostella [1] | control of Heliothis virescens [2] | control of Diabrotica balteata [3] | control of Spodoptera littoralis [4] | control of Tetranychus urticae [5] | control of Thrips tabaci [6]

Cc1cc(C2=NOC(c3cc(Cl)c(C#N)c(Cl)c3)(C(F)(F)F)C2)ccc1C(=O)NC1C[S+]([O-])C1 (stereo not drawn) [Compound A129]
at least 80%: control of Plutella xylostella [1] | control of Heliothis virescens [2] | control of Diabrotica balteata [3] | control of Spodoptera littoralis [4] | control of Tetranychus urticae [5] | control of Thrips tabaci [6]

Cc1cc(C2=NOC(c3cc(Cl)cc(Cl)c3)(C(F)(F)F)C2)ccc1C(=O)NCCC1CSC1 (stereo not drawn) [Compound A131]
at least 80%: control of Plutella xylostella [1] | control of Heliothis virescens [2] | control of Diabrotica balteata [3] | control of Spodoptera littoralis [4] | control of Tetranychus urticae [5] | control of Thrips tabaci [6]

COc1c(Cl)cc(C2(C(F)(F)F)CC(c3ccc(C(=O)NC4CSC4)c(C)c3)=NO2)cc1Cl (stereo not drawn) [Compound A134]
at least 80%: control of Plutella xylostella [1] | control of Heliothis virescens [2] | control of Diabrotica balteata [3] | control of Spodoptera littoralis [4] | control of Tetranychus urticae [5] | control of Thrips tabaci [6]

COc1c(Cl)cc(C2(C(F)(F)F)CC(c3ccc(C(=O)NC4CS(=O)(=O)C4)c(C)c3)=NO2)cc1Cl (stereo not drawn) [Compound A135]
at least 80%: control of Plutella xylostella [1] | control of Heliothis virescens [2] | control of Diabrotica balteata [3] | control of Spodoptera littoralis [4] | control of Tetranychus urticae [5] | control of Thrips tabaci [6]
